Source: publication PMC6597547
These are yes or no findings as the source states them, for the method shown. Binding seen in cells or lysates may run through a third protein. A result given as binding can be weak or reduced; the word gives no strength. Where a sequence is shown, tags or fusion partners need not be part of it.

Biological target: T1, EXECUTER1 (EX1) fused to GFP (Arabidopsis thaliana) (UniProt Q93YW0)
T1 sequence: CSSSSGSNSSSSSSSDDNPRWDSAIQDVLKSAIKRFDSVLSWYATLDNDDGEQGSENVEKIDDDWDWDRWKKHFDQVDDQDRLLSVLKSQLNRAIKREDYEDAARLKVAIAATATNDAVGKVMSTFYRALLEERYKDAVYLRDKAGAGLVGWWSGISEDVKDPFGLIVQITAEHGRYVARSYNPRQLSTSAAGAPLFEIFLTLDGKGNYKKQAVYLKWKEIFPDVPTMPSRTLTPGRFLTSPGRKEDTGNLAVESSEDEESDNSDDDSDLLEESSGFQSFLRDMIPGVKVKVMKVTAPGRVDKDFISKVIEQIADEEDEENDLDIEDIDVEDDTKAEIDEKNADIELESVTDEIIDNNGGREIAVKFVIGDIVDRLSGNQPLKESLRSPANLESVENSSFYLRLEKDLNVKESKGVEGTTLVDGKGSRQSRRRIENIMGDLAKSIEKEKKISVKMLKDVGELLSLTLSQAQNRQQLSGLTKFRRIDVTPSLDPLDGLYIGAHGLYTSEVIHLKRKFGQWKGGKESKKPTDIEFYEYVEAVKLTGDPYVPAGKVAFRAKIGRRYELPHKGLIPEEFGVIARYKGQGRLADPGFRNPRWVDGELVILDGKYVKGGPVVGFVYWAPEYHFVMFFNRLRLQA
Assay: co-IP; EX1-GFP precipitated with GFP-Trap magnetic agarose beads from total protein of 5-day-old dark-grown (etioplasts) or continuous-light-grown (chloroplasts) seedlings; CoIP buffer 20 mM HEPES-KOH pH 7.4, 100 mM NaCl, 0.5% Triton X-100; room temperature 1.5-2 h; western blot with the indicated antibodies

Substance: light-dependent NADPH:protochlorophyllide oxidoreductase (POR) (enzyme)
- binding: binds
